Test results from article PMC9855889.
These are yes or no findings as the source states them, for the method shown. Binding seen in cells or lysates may run through a third protein. Here binding means that the protein was enriched with, or labelled near, the bait; the list need not be complete. A no says only that the protein was not detected with the bait. Blank lines part the entries; values can stand above or below the molecule they belong to.

Sequences of proteins named here, by UniProt entry; tags and fusion partners are left off.
UniProt P53114: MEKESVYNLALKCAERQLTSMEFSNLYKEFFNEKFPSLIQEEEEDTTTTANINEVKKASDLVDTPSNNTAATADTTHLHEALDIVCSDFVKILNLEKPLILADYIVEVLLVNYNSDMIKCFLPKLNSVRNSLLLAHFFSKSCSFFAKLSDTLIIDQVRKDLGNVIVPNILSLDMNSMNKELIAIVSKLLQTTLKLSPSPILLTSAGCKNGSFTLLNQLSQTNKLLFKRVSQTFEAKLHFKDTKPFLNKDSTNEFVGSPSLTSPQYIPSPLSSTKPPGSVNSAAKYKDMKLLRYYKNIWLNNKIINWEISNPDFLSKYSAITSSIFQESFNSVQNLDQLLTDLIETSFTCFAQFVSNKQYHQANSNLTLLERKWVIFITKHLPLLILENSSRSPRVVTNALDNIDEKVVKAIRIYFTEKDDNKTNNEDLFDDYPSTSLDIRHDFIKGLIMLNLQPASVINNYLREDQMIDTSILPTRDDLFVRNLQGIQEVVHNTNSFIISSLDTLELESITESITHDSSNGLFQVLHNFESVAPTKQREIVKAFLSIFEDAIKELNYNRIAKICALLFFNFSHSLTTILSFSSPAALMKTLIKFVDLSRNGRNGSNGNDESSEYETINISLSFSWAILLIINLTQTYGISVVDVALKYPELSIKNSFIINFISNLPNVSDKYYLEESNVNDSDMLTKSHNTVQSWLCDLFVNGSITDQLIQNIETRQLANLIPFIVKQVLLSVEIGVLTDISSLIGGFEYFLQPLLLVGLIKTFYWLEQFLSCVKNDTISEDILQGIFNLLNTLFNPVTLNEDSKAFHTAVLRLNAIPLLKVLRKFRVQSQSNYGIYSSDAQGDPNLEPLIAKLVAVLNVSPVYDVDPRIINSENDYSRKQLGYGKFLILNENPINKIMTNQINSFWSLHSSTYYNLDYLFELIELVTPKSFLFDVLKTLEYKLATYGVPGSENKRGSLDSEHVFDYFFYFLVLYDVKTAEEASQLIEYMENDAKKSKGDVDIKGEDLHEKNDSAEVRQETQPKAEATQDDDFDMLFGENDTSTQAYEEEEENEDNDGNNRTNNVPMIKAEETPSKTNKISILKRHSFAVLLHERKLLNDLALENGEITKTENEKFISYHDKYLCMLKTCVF
UniProt P10591: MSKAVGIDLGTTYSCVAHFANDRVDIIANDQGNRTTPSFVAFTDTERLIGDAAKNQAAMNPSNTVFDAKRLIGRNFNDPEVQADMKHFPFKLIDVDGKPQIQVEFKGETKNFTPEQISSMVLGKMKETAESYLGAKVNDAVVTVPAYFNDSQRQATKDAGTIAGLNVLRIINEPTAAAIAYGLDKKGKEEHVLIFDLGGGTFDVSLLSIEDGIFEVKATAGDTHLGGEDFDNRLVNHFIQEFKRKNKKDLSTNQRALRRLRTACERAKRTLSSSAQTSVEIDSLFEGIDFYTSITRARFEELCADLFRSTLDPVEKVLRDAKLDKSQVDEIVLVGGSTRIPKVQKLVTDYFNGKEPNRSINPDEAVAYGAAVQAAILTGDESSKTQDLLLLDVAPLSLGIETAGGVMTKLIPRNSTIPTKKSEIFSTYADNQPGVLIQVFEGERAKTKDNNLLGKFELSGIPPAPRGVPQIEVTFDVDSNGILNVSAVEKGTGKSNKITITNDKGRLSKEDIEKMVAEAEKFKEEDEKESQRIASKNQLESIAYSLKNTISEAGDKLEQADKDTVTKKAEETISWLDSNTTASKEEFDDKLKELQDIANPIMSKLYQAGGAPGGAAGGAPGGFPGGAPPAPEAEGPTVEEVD

Target: T1, α4/Pre6-FH (S. cerevisiae) (UniProt P40303)
T1 sequence: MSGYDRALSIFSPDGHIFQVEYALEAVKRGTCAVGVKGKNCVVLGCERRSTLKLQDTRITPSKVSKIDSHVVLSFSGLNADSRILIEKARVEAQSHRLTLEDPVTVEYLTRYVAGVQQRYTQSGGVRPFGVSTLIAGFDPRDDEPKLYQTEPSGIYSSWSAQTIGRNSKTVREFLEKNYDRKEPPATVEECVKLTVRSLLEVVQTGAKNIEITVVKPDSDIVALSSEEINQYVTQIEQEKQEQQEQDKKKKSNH
Assay: affinity purification with mass spectrometry; α4-FH captured from yeast extract on anti-FLAG resin in FLAG buffer (50 mM Tris-HCl, 150 mM NaCl, pH 7.4), 4 °C, eluted with FLAG peptide; Superdex200 in 26S buffer; silver-stained bands of fraction 25 analysed by LC-MS

- binding: no binding
Molecule: Nut1, negative regulator of Urs2 of the HO promoter (from UniProt P53114 1-1132)

- binding: binds
Molecule: Ssa1 (from UniProt P10591 1-642)

- binding: no binding
Molecule: Tdh, glyceraldehyde-3-phosphate dehydrogenase

- binding: no binding
B1: Rga1 (RhoGAP for Cdc42) (protein, UniProt P39083 1-1007)
chain: MASTAPNEQFPSCVRCKEFITTGHAYELGCDRWHTHCFACYKCEKPLSCESDFLVLGTGALICFDCSDSCKNCGKKIDDLAIILSSSNEAYCSDCFKCCKCGENIADLRYAKTKRGLFCLSCHEKLLAKRKYYEEKKRRLKKNLPSLPTPVIDNGHTDEVSASAVLPEKTFSRPASLVNEIPSGSEPSKDIETNSSDIVPHFITGYNDSDDNSGSSKFGSNVSIDVIGPEENSTEHVNDDVKEEAEAPSANMSLNVATDPTLSCKEPPSHSRNLLNKTPLRNSSGQYLAKSPSSYRQGIIVNDSLEESDQIDPPNNSSRNASELLTSVLHSPVSVNMKNPKGSNTDIFNTGEISQMDPSLSRKVLNNIVEETNALQRPVVEVVKEDRSVPDLAGVQQEQAEKYSYSNNSGKGRKISRSLSRRSKDLMINLKSRATGKQDSNVKLSPASKVTSRRSQDLMRDNDSHTGLDTPNSNSTSLDILVNNQKSLNYKRFTDNGTLRVTSGKETALEEQKNHSFKSPSPIDHLLQSPATPSNVSMYRTPPLDSSLTFDRRNGSSYSNQNYSIPSWQKTPKTQLENSDNFEEQKETLYENSESRNDPSLDKEIVTAEHYLKQLKINLKELESQREELMKEITEMKSMKEALRRHIESYNSEKNKLYLDSNELSNNPPMINEISLGESPPVKHVATASSVARSSVKPKFWKFFSSAKPQTEQSIQGVSTNNTNSIVKSAPVLLSAPSSGSNSGRLEISPPVLQNPNEFSDVRLVPIENDANMGQSKDGEEYLDGSNLYGSSLVARCNYENNEIPMILSVCIDFIESDEENMRSEGIYRKSGSQLVIEEIEKQFSAWKVQQNTETPNILTEQDLNVVTGVLKRYLRKLPNPIFTFQIYEPLMRLVKSKKMMENLPFVGGKLSLEAKNSDTYMSSKSALKNILEDLPREHYRVLRVLSEHIEKVTRYSHWNRMTLYNLALVFAPGLIRDFSGEKDIIDMKERNYIVAFIFGNYKDILT

- binding: binds
B2: Sse2 (protein, UniProt P32590 1-693)
chain: MSTPFGLDLGNNNSVLAVARNRGIDVVVNEVSNRSTPSLVGFGPRNRYLGESGKTKQTSNVKNTVENLKRIIGLKFKDPEFDIENKFFTSKLVQLKNGKVGVEVEFGGKTHVFSATQLTAMFIDKVKHTVQEETKSSITDVCLAVPVWYSEEQRYNIADAARIAGLNPVRIVNDVTAAAVSYGVFKNDLPGPEEKPRIIGLVDIGHSTYTCSIMAFRKGEMKVLGTAYDKHFGGRDFDRAITEHFADQFKDKYKIDIRKNPKAYNRILIAAEKLKKVLSANTTAPFSVESVMDDIDVSSQLSREELEELVEPLLKRVTYPITNALAQAKLTVNDIDFVEIIGGTTRIPVLKKSISDVFGKPLSSTLNQDEAVAKGAAFICAIHSPTLRVRPFKFEDIDPYSVSYTWDKQVDDEDRLEVFPANSSYPSTKLITLHRTGDFSMKAVYTHPSKLPKGTSTTIAKWSFTGVKVPKDQDFIPVKVKLRCDPSGLHIIENAYTTEDITVQEPVPLPEDAPEDAEPQFKEVTKTIKKDVLGMTAKTFALNPVELNDLIEKENELRNQDKLVAETEDRKNALEEYIYTLRAKLDDEYSDFASDAEKEKLKNMLATTENWLYGDGDDSTKAKYIAKYEELASLGNIIRGRYLAKEEEKRQALRANQETSKMNDIAEKLAEQRRARAASDDSDDNNDENMDLD
